Laboratory results from PubChem BioAssay AID1347423 (Functional Genomics Laboratory (NCATS/FGL), 2020).
Screen size: about 52,000 sequences; about 210 (0.4%) were called active.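 Rule for the calls: active = gene whose silencing raises cell survival under the drug, median off-target-corrected z-score across its silencing RNAs 2 or more; inactive = the rest.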 The list shows a part of the results.

Assay: Resistance to Poly (ADP-Ribose) Polymerase inhibitor: Gene Identification via Genome-wide siRNA Screen
Conditions: mouse BRCA2 R2336H ES cells, olaparib, CellTiter-Glo viability; active compounds read high
How it was run: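 Genome-wide siRNA screen (3 siRNAs/gene, 20 nM) in mouse ES cells carrying hypomorphic BRCA2 R2336H; olaparib 500 nM added 48 h post-transfection, CellTiter-Glo viability 72 h later. Normalized to plate-median negative control; MAD z-scores, gene median, seed-adjusted.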
With “GGAACCCAAGUGCUUAGAATT against 2410016O06Rik” the z-score was inactive: -0.532. In the case of GCGGGUAUGAUGGUACCUUTT against Pomt2, the z-score is reported as inactive: -0.217. In the case of GGUCAAAGAUGCUAUAAAATT against Olfr993, the z-score is reported as inactive: 1.04. In the case of GGAUCUACGUAGCAUUUCATT against Misc12, the z-score is reported as inactive: -0.912. In the case of CCCAGAAAUUUCAACUACATT against Clm3, the z-score is reported as inactive: 1. In the case of “GGAUCCUGACAACCCUGUGTT against 3110056O03Rik”, the z-score is reported as inactive: 0.833. With GGUCAGAAUCUUUGUUCCUTT against Ndufs4 the z-score was inactive: -1.12. With GGGUGAAAUCUAUCUCCAUTT against Hrb the z-score was inactive: -1.73. For CCCGUUGCUUUAGAGCUCUTT against Dph2l2, the z-score was inactive: 1.68. With GGUUUUACCGAUGAUGCAUTT against Pcdhb20 the z-score was inactive: -1.1. In the case of GGACAUUUUGAACUGUUAUTT against BC046386, the z-score is reported as inactive: 0.0833. With GGUAGAUGCUUUGAGCUUCTT against Enpp2 the z-score was inactive: 0.503. In the case of GGAGAGUAUGUACUCACAUTT against Lnk, the z-score is reported as inactive: -0.255. With “GGGACUUUGGGCUAAAUAGTT against 9030418M05Rik” the z-score was inactive: -2. In the case of GCUAUUCGUCAAUGCUGACTT against Abcf1, the z-score is reported as inactive: -0.879. For “CCUCUCAUUGGGAUGUUACTT against 4933425K02Rik”, the z-score was inactive: -2.8. In the case of GGAGACAUAUGAGACUCUGTT against Fcer1g, the z-score is reported as inactive: -0.333. With GGAAACCUUCAGGUUCUGATT against Cdon the z-score was inactive: -1.81. With CGUAGGACUGAAUCAGCUUTT against Slc13a3 the z-score was inactive: -0.339. In the case of GUUGUGCCUCCCUCAAUCATT against Ndufa7, the z-score is reported as inactive: -0.189. In the case of GGCGAAUGUUUACGAGAACTT against Sh2d1c, the z-score is reported as inactive: 1.22. In the case of GACCACAGAUGACAUGGUGTT against Il12a, the z-score is reported as inactive: 0.404. With CGGAAUCAAGGACCGAGUUTT against Ndufab1 the z-score was inactive: -0.9. With GCCAAGAAAAUCAAGUCUCTT against Pknox2 the z-score was inactive: 0.0675. In the case of GGCAAAUCCCGUUCACUGATT against Magel2, the z-score is reported as inactive: 0.062. For GGUCCAACGAUAUGUUGACTT against LOC545288, the z-score was inactive: 0.51. With GCGGAACUGACUUUCCUGATT against Rhot2 the z-score was inactive: -0.192. With CCAACUCCUGGAAGAUGCATT against Olfr1314 the z-score was inactive: -0.758. For CCUUGUGGUUUUCGUAACGTT against Mrgprb1, the z-score was inactive: 1.22. For “CCACAAAUGCUUCAAGCUATT against 0610030I09Rik”, the z-score was inactive: 0.339. In the case of GGAUUAUAAGUGGAGAAUGTT against Sytl5, the z-score is reported as inactive: 0.626. In the case of GGACUUCAUGCAUCUUACUTT against Stat1, the z-score is reported as inactive: 1.9. With GGAUCUCCUGCUUGAACUGTT against Adam33 the z-score was inactive: -0.375. In the case of GGAAAAUACAGCGCGAAUUTT against Nexn, the z-score is reported as inactive: -0.415. For GGAUGAAGAUGACUUUGAUTT against Hnrpul1, the z-score was inactive: -0.591. With GGACCUCUAGCUGGAACACTT against Il17c the z-score was inactive: -0.521. For CCAUCACUCGAGCUUCUAGTT against Dhx30, the z-score was inactive: 2.03. For GGCACUUCAAGGAGUUUUUTT against Lig4, the z-score was inactive: -0.102. In the case of GCCGGUCUUUCAAGAAGAUTT against Lnx1, the z-score is reported as inactive: -1.59. For GGCUACCAGGUUCUUAAACTT against Alox12b, the z-score was inactive: -0.271. With GCUGAACAGGUGGUACAAUTT against B3gnt1 the z-score was inactive: -0.38. With GGACAAGCUCCAAAACAACTT against Sfrs4 the z-score was inactive: -1.45. For CCCUCUCCGAUAUAACACUTT against Olfr672, the z-score was inactive: -0.0199. In the case of GGUUAACUGAAUCAAAAAGTT against Pdhx, the z-score is reported as inactive: 1.41. In the case of “CCUUCAGAUCAUUCUUAGATT against C530050O22Rik”, the z-score is reported as inactive: -0.371. With GGAUGAUGAGGAUGACUACTT against Trap1a the z-score was inactive: -0.824. For “GGAAAAAAUGGAGUUAUGUTT against C230096C10Rik”, the z-score was inactive: 0.298. With GGAAUUUCCCAAAAGCACUTT against Nubp2 the z-score was inactive: -0.745. For GCCAGAGCAUGAGUGAAAATT against Sephs2, the z-score was inactive: 0.134. With GGUGGAAGACAAUGAAAUUTT against Ftsj1 the z-score was inactive: 0.312. With CCUCGACACUACUGUGUUATT against Mvp the z-score was inactive: -0.829. For GGGCUGUAUAUAAAAUAUCTT against Gprc5b, the z-score was inactive: 0.116. In the case of “GGAAUUCAGGGAGCUUCGATT against 1700034M03Rik”, the z-score is reported as inactive: 0.272. In the case of CGACCUGUUCGCCAUCAAATT against AI480556, the z-score is reported as inactive: 1.7. For GGCUCUAACUGUGAGAAGATT against Dll3, the z-score was inactive: -0.0834. For GGCUUGUGGAUGAAUUGUATT against Cldn8, the z-score was inactive: -0.504. For CCCUUGUGAUGUGGUGAAGTT against Slc25a22, the z-score was inactive: -1.58. With GGAGAACUGAUAAAGCUUUTT against Tas2r105 the z-score was inactive: 0.757. With GGUUGAUGAAAAAACUGUATT against Sh3d1B the z-score was inactive: 1.02. For CCCUUCCAACAAUUAUACUTT against Tmem27, the z-score was inactive: 1.04. With GCCAAAUACGUGUAUGACUTT against Sfxn3 the z-score was inactive: -0.0616. In the case of GGAAGUCUGUCCAAGGUAUTT against Olfr192, the z-score is reported as inactive: -0.595. In the case of “GGUGGUAGCUUUGUACUUUTT against 4930519N16Rik”, the z-score is reported as inactive: -1.35. For GGUGAGCAAGAACAAAAAGTT against BC051070, the z-score was inactive: 1.04. With GCUGAAAUCCUUAAUCUCGTT against Col6a3 the z-score was inactive: 1.72. For GUGAUGUCACCCACGAAAGTT against Erdr1, the z-score was inactive: -0.327. With GGCCACAAGAUACAUAUAUTT against Bmi1 the z-score was inactive: -1.44. With GCCCAUCUAGGAUCUAUAUTT against F9 the z-score was inactive: -0.689. With “CCUUUAAAAGCGUAGGCAUTT against 2210008M09Rik” the z-score was inactive: -1.87. In the case of “GCGAUACAACUCUUAUGACTT against D030011O10Rik”, the z-score is reported as inactive: -1.5. For GGAAGUGUCCAGCAAUUAGTT against Stc2, the z-score was inactive: -0.35. For “GGCAGAUGUGAAAAGUGCATT against 8430432M10Rik”, the z-score was inactive: 0.763. For GCUCAGACUAGAUUAAUGUTT against Gmeb2, the z-score was inactive: -1.12. In the case of CCUCAUUUAGAUGUCUUGATT against Ran, the z-score is reported as inactive: -1.91. For GGUGAUUACUCUUAUGUGATT against Slc7a8, the z-score was inactive: -0.0491. In the case of “CGUGAAAGAUCAUCUCAGATT against 4933427D14Rik”, the z-score is reported as inactive: -0.968. In the case of “GGUCUCUGUAGAGAUGGCATT against 6820408C15Rik”, the z-score is reported as inactive: 0.249. With CGAAUGUUGAAUCUUCUUGTT against Cdv1 the z-score was inactive: 0.0507. With GGCAAAAGUGUGAACAGUUTT against Sftpb the z-score was inactive: -2.25. With GGAGAAGAAGAAAGAGCGGTT against Gja3 the z-score was inactive: -0.765. In the case of GGAUAUACAAGCACAAACUTT against Gje1, the z-score is reported as inactive: -1.15. For CCUGCUACAAGUAUCUCAATT against Fdft1, the z-score was inactive: 1.25. With CCCUUAGCGACUUUUCUAATT against Eif5b the z-score was inactive: 0.831. In the case of GGAUGUGUUUGUGUGCAUGTT against Recql5, the z-score is reported as inactive: -0.205. In the case of GGCAUCUUUACAUUUGUGATT against Sap30, the z-score is reported as inactive: -0.574. For GGAAUUUUAUUCAGAGGCUTT against Fmip, the z-score was inactive: -0.836. With “GCUCAAGUAAUAGAAACUUTT against 2810405J04Rik” the z-score was inactive: -0.398. In the case of GGAUGAAGACAAUGAUAUUTT against Evi1, the z-score is reported as inactive: -0.186. For “GGAACCUAAUUAGCAAAGCTT against 2310007A19Rik”, the z-score was inactive: 0.952. With CAGCUUGUGCUCGAGUAAATT against LOC433762 the z-score was inactive: -0.981. With GCCAUGUGAGACUCUUAUATT against Slc2a9 the z-score was inactive: 0.554. With CCUAAUGAUGGCUCUUACUTT against Eltd1 the z-score was inactive: 0.0122. In the case of CCCACUAAUAGCACUGUCCTT against Olfr746, the z-score is reported as inactive: 0.51. In the case of GCGACUCACUAUUUGGGCATT against Ell3, the z-score is reported as inactive: 0.832. With CCUCAAUUGGAUAAAGAAGTT against Gzma the z-score was inactive: 0.243. In the case of “GCUAUCCCUUAAAUGCUCATT against E430002G05Rik”, the z-score is reported as inactive: 0.547. In the case of GGGAAAUUAUCGCUUUAUGTT against Invs, the z-score is reported as inactive: 1.71. With GCUAUUGUGGUAUGGAUUATT against Il2ra the z-score was inactive: 1.78. For GGGAGAAGAUCUAAUUCAATT against Cd34, the z-score was inactive: 1.21. With “GGUGCUUUGAAGUUUUUCATT against 9630005B12Rik” the z-score was inactive: 0.521. For GUCCUAAAACGAGUGAGAGTT against Trib3, the z-score was inactive: -0.173. For “GGUCAAGUAUCUGAGAAAATT against 2700094K13Rik”, the z-score was inactive: -1.58. With GGAAGAAGCAACCACAUUCTT against Evl the z-score was inactive: -1.71. For GGGAAAGGAGGACAAAGAGTT against Gip, the z-score was inactive: -1.49.
